Results published in patent publication US6399759.
Results are given in words; binding and its absence hold for the method and conditions named.

Target: T1, Soli E2 (Solenopsis invicta)
T1 sequence: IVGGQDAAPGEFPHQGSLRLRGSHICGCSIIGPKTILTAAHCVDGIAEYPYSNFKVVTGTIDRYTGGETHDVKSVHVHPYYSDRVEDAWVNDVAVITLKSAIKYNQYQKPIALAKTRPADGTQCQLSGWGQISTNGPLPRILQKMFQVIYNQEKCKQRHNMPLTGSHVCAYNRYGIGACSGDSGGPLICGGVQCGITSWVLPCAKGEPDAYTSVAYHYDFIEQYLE
Test: inhibition of amidolytic activity, 0.02-50 nM inhibitor, 1.0 nM enzyme

B1: Lima Bean Trypsin Inhibitor (protein, UniProt P01056 1-83, looked up)
chain: SGHHEHSTDZPSZSSKPCCBHCACTKSIPPQCRCTDLRLDSCHSACKSCICTLSIPAQCVCBBIBDFCYEPCKSSHSDDDNNN
With B1 as the binder, how does the binding read?
Its binding is “no binding (tested: IC50 > 50 nM)”.
